Reference: US6673587
No constants are given. Whether binding was seen depends on the method and setting. Some binding calls cover weakened binding; strength is not graded here.

Chains of the proteins cited; added tags and fusions are not shown. Lines headed by an entry give the natural chain unless they say otherwise; changes in a name come on top.
UniProt P04386: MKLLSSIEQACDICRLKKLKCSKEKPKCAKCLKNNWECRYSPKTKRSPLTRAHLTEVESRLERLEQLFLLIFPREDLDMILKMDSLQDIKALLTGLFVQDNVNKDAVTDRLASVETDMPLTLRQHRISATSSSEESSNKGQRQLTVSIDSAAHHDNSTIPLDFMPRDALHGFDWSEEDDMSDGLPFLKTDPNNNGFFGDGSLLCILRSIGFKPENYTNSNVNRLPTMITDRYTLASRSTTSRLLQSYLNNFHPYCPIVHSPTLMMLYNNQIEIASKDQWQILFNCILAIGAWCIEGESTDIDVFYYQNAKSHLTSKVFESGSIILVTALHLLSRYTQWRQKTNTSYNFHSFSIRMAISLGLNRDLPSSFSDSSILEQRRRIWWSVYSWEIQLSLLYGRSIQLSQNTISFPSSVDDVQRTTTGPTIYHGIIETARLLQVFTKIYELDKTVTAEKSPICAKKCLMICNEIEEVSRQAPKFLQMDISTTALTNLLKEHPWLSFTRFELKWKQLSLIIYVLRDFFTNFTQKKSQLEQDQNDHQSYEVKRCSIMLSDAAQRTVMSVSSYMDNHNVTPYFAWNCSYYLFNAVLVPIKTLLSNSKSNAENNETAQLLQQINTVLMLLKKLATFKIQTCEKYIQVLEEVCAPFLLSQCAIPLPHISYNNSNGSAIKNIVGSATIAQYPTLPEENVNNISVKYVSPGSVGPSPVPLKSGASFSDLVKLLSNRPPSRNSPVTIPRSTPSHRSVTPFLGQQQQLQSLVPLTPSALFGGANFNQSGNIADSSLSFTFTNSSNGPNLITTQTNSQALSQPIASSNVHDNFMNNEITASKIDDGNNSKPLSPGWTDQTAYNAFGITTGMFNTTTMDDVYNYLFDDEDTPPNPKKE
UniProt Q9Y618: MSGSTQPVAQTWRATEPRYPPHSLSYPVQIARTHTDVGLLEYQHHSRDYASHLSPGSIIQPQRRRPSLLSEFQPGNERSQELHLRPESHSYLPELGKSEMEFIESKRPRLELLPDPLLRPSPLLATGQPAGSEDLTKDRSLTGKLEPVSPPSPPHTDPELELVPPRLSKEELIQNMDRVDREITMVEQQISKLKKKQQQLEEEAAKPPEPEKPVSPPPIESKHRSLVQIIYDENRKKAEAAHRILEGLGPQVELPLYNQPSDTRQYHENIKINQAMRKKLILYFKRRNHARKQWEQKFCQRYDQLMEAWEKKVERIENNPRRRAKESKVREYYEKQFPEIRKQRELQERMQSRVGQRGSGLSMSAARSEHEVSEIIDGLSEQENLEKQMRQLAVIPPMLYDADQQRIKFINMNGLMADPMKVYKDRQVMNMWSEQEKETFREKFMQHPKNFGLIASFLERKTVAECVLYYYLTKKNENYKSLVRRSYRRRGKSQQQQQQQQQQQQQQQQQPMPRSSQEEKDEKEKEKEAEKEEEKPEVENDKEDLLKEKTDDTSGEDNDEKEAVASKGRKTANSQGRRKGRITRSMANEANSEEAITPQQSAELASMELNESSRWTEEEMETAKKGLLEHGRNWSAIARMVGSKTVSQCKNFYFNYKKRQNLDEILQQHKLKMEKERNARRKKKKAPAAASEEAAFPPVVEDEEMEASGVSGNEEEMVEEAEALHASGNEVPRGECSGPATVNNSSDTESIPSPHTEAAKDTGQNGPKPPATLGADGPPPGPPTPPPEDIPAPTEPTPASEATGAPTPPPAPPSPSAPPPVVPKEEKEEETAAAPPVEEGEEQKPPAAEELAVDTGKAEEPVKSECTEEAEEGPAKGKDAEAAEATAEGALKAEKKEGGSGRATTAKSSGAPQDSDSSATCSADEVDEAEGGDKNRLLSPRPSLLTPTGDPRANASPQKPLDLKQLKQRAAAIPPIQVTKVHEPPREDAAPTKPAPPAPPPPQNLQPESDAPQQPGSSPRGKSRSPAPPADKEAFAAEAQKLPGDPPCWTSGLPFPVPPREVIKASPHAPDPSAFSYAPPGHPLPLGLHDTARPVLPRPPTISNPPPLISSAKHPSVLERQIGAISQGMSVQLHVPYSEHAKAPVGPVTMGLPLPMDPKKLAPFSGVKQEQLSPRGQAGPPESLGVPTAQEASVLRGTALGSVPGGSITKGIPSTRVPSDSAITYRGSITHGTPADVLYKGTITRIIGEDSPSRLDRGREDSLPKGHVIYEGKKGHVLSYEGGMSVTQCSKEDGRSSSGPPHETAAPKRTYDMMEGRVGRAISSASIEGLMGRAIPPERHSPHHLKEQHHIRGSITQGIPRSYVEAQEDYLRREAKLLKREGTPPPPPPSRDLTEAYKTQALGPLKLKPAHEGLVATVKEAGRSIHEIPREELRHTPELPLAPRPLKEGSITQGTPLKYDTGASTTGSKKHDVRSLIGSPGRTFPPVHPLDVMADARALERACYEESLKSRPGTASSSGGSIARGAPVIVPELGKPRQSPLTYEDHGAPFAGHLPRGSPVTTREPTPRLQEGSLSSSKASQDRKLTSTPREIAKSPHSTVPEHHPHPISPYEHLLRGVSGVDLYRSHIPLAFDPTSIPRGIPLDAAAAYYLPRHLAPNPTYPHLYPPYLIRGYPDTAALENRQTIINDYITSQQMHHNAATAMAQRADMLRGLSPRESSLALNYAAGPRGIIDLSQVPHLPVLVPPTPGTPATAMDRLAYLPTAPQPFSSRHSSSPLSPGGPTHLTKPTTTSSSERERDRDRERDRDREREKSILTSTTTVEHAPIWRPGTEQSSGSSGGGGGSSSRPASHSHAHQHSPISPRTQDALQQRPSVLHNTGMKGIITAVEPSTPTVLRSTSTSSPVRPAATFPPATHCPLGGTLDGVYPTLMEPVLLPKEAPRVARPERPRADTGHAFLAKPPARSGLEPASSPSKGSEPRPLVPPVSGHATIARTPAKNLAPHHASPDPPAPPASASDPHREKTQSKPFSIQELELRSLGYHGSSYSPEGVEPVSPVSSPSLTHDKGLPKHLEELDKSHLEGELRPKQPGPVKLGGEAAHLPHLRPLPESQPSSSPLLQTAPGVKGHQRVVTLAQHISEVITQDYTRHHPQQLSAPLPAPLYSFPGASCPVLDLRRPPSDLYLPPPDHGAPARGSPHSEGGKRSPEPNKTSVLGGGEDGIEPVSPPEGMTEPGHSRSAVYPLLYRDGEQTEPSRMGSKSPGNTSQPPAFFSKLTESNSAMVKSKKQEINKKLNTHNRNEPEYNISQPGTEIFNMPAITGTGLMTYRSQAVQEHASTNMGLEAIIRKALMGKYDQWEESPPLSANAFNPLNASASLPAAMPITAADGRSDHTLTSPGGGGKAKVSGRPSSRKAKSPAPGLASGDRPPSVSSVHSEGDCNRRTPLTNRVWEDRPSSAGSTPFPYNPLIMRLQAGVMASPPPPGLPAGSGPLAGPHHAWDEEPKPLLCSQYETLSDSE
UniProt Q8C2B3: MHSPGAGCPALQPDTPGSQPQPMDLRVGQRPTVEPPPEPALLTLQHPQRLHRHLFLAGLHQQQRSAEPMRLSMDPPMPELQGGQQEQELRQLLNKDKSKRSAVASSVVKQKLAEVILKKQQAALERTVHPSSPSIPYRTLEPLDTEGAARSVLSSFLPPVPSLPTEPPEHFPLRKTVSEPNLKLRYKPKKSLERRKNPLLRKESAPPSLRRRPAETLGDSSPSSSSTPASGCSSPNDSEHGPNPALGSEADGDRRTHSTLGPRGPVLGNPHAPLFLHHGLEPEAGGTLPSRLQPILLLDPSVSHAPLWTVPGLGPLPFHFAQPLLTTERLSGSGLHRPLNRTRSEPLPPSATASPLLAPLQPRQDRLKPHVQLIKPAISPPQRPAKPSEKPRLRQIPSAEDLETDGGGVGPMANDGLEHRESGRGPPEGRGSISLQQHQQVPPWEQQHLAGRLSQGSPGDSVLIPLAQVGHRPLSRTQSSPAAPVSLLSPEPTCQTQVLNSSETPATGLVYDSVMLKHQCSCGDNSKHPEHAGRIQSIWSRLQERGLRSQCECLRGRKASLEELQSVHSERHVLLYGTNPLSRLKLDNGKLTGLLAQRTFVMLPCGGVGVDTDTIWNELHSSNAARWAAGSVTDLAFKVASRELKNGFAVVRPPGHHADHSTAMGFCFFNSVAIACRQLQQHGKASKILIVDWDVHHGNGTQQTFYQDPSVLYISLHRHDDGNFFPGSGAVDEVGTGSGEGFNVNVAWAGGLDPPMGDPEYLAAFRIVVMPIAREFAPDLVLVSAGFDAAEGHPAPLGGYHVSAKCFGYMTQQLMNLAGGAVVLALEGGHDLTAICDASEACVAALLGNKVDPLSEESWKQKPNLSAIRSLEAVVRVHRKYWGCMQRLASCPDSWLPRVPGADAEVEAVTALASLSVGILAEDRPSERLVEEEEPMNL

Columns and labels:
[1] = molecular target: T1, GAL DBD-SMRT (RD III+IV), pGBT9-hSMRT (1060-1831) (human) (UniProt P04386+Q9Y618); assay: yeast two-hybrid
[2] = molecular target: T1, GAL DBD-SMRT (RD III+IV), pGBT9-hSMRT (1060-1831) (human); assay: yeast two-hybrid, liquid beta-galactosidase assay
[3] = molecular target: T1, GAL DBD-SMRT (RD III+IV), pGBT9-hSMRT (1060-1831) (human); assay: yeast two-hybrid, growth on -Trp-Leu-His+40 mM 3-AT plates
[4] = molecular target: T1, GAL DBD-SMRT (RD III+IV), pGBT9-hSMRT (1060-1831) (human); assay: yeast two-hybrid screen with pGBT9-hSMRT (1060-1831) as bait

Measured: binding

mHDAC7 clone 23C, C-terminal sequence of mHDAC7 (GAL AD fusion) (from UniProt Q8C2B3 500-938) (enzyme)
binds: all assays above
